# Laboratory results taken from PubChem BioAssay AID2551 (National Center for Advancing Translational Sciences (NCATS), 2010).
# The chains behind the UniProt entries cited, without tags or fusion partners. Where a name states a change or a piece, a line headed by the entry shows the natural chain unless it says otherwise.
# UniProt P51450: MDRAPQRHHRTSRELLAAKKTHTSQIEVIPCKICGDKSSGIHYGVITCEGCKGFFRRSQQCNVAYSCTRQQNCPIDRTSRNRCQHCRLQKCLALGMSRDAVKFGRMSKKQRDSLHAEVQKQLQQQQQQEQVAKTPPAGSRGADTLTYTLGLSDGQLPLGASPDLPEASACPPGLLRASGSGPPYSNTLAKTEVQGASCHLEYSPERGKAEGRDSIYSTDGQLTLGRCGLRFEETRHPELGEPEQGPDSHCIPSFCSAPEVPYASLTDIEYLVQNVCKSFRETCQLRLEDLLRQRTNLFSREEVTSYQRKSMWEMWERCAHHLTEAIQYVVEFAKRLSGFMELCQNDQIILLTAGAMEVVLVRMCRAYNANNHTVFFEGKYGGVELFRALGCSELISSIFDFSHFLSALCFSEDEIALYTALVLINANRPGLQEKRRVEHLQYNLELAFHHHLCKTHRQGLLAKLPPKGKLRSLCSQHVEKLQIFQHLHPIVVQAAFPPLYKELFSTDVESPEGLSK
# In all, about 310,000 compounds went through this assay and about 17,000 (5.5%) were called active. This list was built around the results that the source calls inconclusive (neither active nor inactive); the mix of calls is not that of the screen. Calls follow the shape of the dose curve; as a rule, active = well fitted inhibition curve with a large enough effect; inconclusive = small, poorly fitted or top-dose-only effect, or effect the other way; inactive = no such curve, though single readings can be large or run the other way. Potencies of inconclusive entries are doubtful fits and often do not repeat.
# Target: Nuclear receptor ROR-gamma (Mus musculus) (UniProt P51450)
# Experiment: qHTS for inhibitors of ROR gamma transcriptional activity; also: nearly all actives have a fitted effect of over 60% in size
# Conditions: Drosophila S2 Gal4-RORgamma UAS-luciferase reporter, 20 h; activity change, negative = inhibition: at 53.6 µM (top of the series)
# Outline: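 Luciferase reporter read in Schneider cells carrying Gal4-RORγ (mouse) and UAS-Photinus luciferase; cells given compound 1 h before 700 uM copper sulfate induction, then incubated 20 h at ambient temperature.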
# % is scaled to controls: 0 for no effect and ±100 for the full control effect; potency is read from the fitted curve at half-maximal effect.
Structure (SMILES),Potency,"activity change, negative = inhibition"
C=CCn1c(=O)c2ccccc2n2c(SC(C)C(=O)Nc3nc(-c4ccccc4)cs3)nnc12 (stereo not drawn),"inconclusive: 0.562 µM [activator, partial curve]",–
Cc1cc(SCC(=O)NCCC2=CCCCC2)nc2ccccc12,"inconclusive: 35.5 µM [inhibitor, single point]",–
O=[N+]([O-])/C=C/c1cn(Cc2ccc(Cl)cc2)c2ccccc12,"inconclusive: 15.8 µM [inhibitor, single point]",–
COc1ccc(C2c3c(C)nn(-c4ccccc4)c3NC(=O)N2c2ccccc2)cc1 (stereo not drawn),"inconclusive: 35.5 µM [activator, single point]",–
COC(=O)[C@H](C)[C@@H]1C[C@@]1(C)[C@@H](NC(=O)OCc1ccccc1)c1ccccc1,"inconclusive: 14.1 µM [activator, single point]",–
CCOC(=O)C1=C(O)C(=O)N(Cc2cccnc2)C1c1ccc(OC)cc1 (stereo not drawn),inactive,–
CC(=O)Nc1ccccc1/C=C/c1ccc2c(C)ccc(O)c2n1,active: 8.91 µM,–
CCS(=O)(=O)c1cc([N+](=O)[O-])c(Sc2ccccc2NC(C)=O)s1,"inconclusive: 15.8 µM [inhibitor, single point]",–
Cc1c(C(=S)Nc2ccccc2)cnn1-c1ccc([N+](=O)[O-])cc1,"inconclusive: 22.4 µM [inhibitor, single point]",–
CC(=O)Oc1c(/C=C(\C#N)C(N)=O)[nH]c2ccccc12,inactive,–
Cc1ccc(SC/C(O)=C(\C#N)c2nc3ccccc3s2)cc1,–,inactive: 0.954% [at 0.365 µM]
CCOC(=O)c1c(-c2cccs2)csc1NC(=O)CN(CC)CC,"inconclusive: 6.31 µM [inhibitor, partial curve, poor fit]",–
CCc1ccccc1S(=O)(=O)Cc1ccc(C(=O)N2CCN(c3ccccn3)CC2)o1,inactive,–
CCCCN(N=Nc1nonc1OC)c1nonc1OC,inactive,–
O=C(CSc1nc2cc(Cl)ccc2s1)Nc1cccc(S(=O)(=O)N2CCOCC2)c1,"inconclusive: 35.5 µM [activator, single point]",–
O=c1cnc2cnc(N3CCNCC3)nc2n1Cc1cccs1,inactive,–
Cc1nc(NCCc2ccccc2)sc1C(=O)O,"inconclusive: 35.5 µM [inhibitor, single point]",–
Cn1c(=O)c2c(nc(N3CCCCC3)n2CCSc2nc3ccccc3s2)n(C)c1=O,inactive,–
COc1ccc(C(=O)c2oc3ccc(OC)cc3c2N)cc1,"inconclusive: 3.98 µM [activator, full curve, poor fit]",–
CN(C)c1ccc(N2C(=O)CSC2=S)cc1,"inconclusive: 20 µM [inhibitor, single point]",–
CCOc1cc(-c2nn3cnnc3s2)cc(OCC)c1OCC,inactive,–
CC(=O)Nc1cccc(OC(=O)COc2ccc(Br)cc2)c1,inactive,–
Cc1ccc(OCCn2c(=S)[nH]c3ccccc32)c(C(C)C)c1,active: 3.55 µM,–
COc1ccccc1/C=C1\SC(=S)N(Nc2nc(C)cc(C)n2)C1=O,active: 11.2 µM,–
COc1ccc(C2CC(c3cccs3)n3nc(N)nc3N2)cc1 (stereo not drawn),"inconclusive: 35.5 µM [activator, single point]",–
Cc1cc(C)c(NC(=S)NCC2CCN(C(C)c3ccccc3)C2)c(C)c1 (stereo not drawn),active: 7.94 µM,–

Structure (SMILES),Potency,"activity change, negative = inhibition"
COc1cc(OC)cc(N(C(=O)c2ccco2)C(C(=O)NC2CCCC2)c2ccc(N(C)C)cc2)c1 (stereo not drawn),inactive,–
OC(COc1ccccc1)CN1CCN(Cc2ccc3c(c2)OCO3)CC1 (stereo not drawn),inactive,–
Nc1nc2ccccc2n1/N=C/c1ccc2c(c1)OCO2,active: 10 µM,–
CCC(O)C1CCN(C(=O)c2ccc(OC3CCN(Cc4ccccn4)CC3)cc2)CC1 (stereo not drawn),inactive,–
Cc1ccc(-c2c(C)sc3nc[nH]c(=O)c23)cc1C,"inconclusive: 31.6 µM [activator, single point]",–
Cc1cc(/C=C2\SC(=S)NC2=O)c(C)[nH]1,inactive,–
CN(CC(=O)NCc1cccnc1)S(=O)(=O)c1ccc(F)cc1,inactive,–
COc1ccc(CCNC(=O)c2ccc(S(=O)(=O)N(C)c3ccccc3)cc2)cc1OC,"inconclusive: 11.2 µM [activator, partial curve]",–
CCOC(=O)CN1C(=O)/C(=C/c2c(F)cccc2Cl)Oc2ccccc21,"inconclusive: 35.5 µM [activator, single point]",–
S=C(c1ccc(N2CCCC2)cc1)N1CCCCC1,active: 8.91 µM,–
COc1ccc(NC(=S)N(Cc2ccccn2)Cc2ccccc2Cl)cc1,active: 5.62 µM,–
Cc1nc2ccc([N+](=O)[O-])cc2c(=O)n1Cc1ccc(Cl)cc1,"inconclusive: 31.6 µM [activator, single point]",–
CCC(=O)NC(=S)Nc1ccccc1C(=O)OC,active: 12.6 µM,–
COc1ccc(CCn2c(-c3ccccc3)nc3c(c(=O)c4ccccc4n3C)c2=O)cc1,inactive,–
Cc1ccnc(SC2CC(=O)N(c3ccc(F)cc3)C2=O)n1 (stereo not drawn),"inconclusive: 35.5 µM [inhibitor, single point]",–
Cc1cccc(NC(=O)CN(C)S(=O)(=O)c2cccs2)c1,"inconclusive: 7.94 µM [activator, partial curve]",–
Cc1ccc(C(=O)NCc2ccc3c(c2)OCO3)cc1S(=O)(=O)N1CCCCC1,inactive,–
CCCOC1CCCN(C(=O)CCc2nnc(CCCCc3ccccc3)o2)C1 (stereo not drawn),"inconclusive: 11.2 µM [activator, single point]",–
O=C(O)CCC(=O)Nc1ccc(-c2nnc(-c3ccco3)o2)cc1,inactive,–
S=c1[nH]nc(-c2ccccc2)c2ccccc12,active: 7.08 µM,–
CN1CC(c2ccccc2)C2(COc3ccccc3C2=O)C12C(=O)Nc1ccccc12 (stereo not drawn),"inconclusive: 17.8 µM [activator, partial curve]",–
O=C(NC(c1ccc(Cl)cc1)c1c(O)ccc2ccccc12)c1ccccc1 (stereo not drawn),inactive,–
COc1ccc(Cc2nnc(NC(=O)CSc3ccc(C)cc3)s2)cc1OC,active: 11.2 µM,–
COc1cc([N+](=O)[O-])ccc1NC(=S)NC(=O)CC(C)(C)C,active: 10 µM,–
CCOC(=O)C1(Cc2ccccc2)CCCN(C2CCCC2)C1 (stereo not drawn),inactive,–
COc1ccccc1NC(=S)NCc1ccccn1,"inconclusive: 11.2 µM [inhibitor, partial curve, poor fit]",–

Structure (SMILES),Potency,"activity change, negative = inhibition"
Cc1c(C(=O)OC2CCCC2)[nH]c2c1C(=O)CC(c1ccco1)C2 (stereo not drawn),inactive,–
Cn1c(=O)c2c(SCC(=O)N3CCCc4ccccc43)nc(CC(C)(C)C)nc2n(C)c1=O,inactive,–
Cc1ccc(Nc2cc(C)nc3ccc(C)cc23)cc1,inactive,–
CSc1ccc2c(c1)C(N1CCN(C)CC1)Cc1ccccc1S2 (stereo not drawn),"inconclusive: 10 µM [inhibitor, partial curve, poor fit]",–
COc1ccc(NC(=O)c2cc(S(=O)(=O)N3CCc4ccccc43)cn2C)c(OC)c1,"inconclusive: 14.1 µM [activator, single point]",–
COc1cccc(N2CCN(c3ccc([N+](=O)[O-])cn3)CC2)c1,inactive,–
Cc1ccc(C2=NN3C(C(=O)c4ccccc4)Oc4ccccc4C3C2)cc1 (stereo not drawn),inactive,–
O=C1C2CC=CCC2C(=O)N1c1ccc(NCCc2cccc(F)c2)c([N+](=O)[O-])c1 (stereo not drawn),"inconclusive: 35.5 µM [activator, single point]",–
COc1ccc(OC)c(NC2=NC3(CCCCC3)N=C(N)N2)c1,inactive,–
CCc1cc(C(=O)N2CCN(c3ccccn3)CC2)sc1C,inactive,–
COCCNC(=O)Cc1c(C)c2c(cc(C)c3c(C(C)(C)C)coc32)oc1=O,inactive,–
COc1ccc(/C=N/NC(=O)c2ccccc2OCc2ccccc2)c(OC)c1,inactive,–
COc1ccc(CC(=O)O/N=C(\N)c2ccc(Br)cc2)cc1OC,"inconclusive: 31.6 µM [activator, single point]",–
S=c1[nH]nc(-c2cc(-c3ccccc3)n[nH]2)n1/N=C/c1c(Cl)cccc1Cl,"inconclusive: 5.01 µM [inhibitor, partial curve]",–
COC(=O)c1c(NC(=O)Cc2cccs2)sc2c1CCC(C)C2 (stereo not drawn),"inconclusive: 11.2 µM [activator, single point]",–
COc1ccc(C(=O)/C=C(\C)Nc2ccc3c(c2)OCO3)cc1,"inconclusive: 35.5 µM [inhibitor, single point]",–
O=c1c2ccccc2ncn1Cc1ccco1,"inconclusive: 3.16 µM [inhibitor, partial curve, poor fit]",–
Cc1ccc(C(=O)N2CCCC(C(=O)c3ccc(Oc4ccccc4)cc3)C2)cn1 (stereo not drawn),inactive,–
CC(=O)c1nnn(-c2cccc([N+](=O)[O-])c2)c1C,"inconclusive: 35.5 µM [inhibitor, single point]",–
CC(=O)c1sc(NC(=O)c2cc(-c3ccccc3)nn2-c2ccccc2)nc1C,–,inactive: -9.01% [at 10 µM]
COc1ccc(/C=N/NC(=O)c2[nH]c3ccc(C)cc3c2-c2ccccc2)c(C(=O)O)c1OC,inactive,–
CCN(CC)Cc1nc2c(c(=O)[nH]1)C(CC)(CC)Cc1ccccc1-2,active: 1.58 µM,–
CCOc1ccc(S(=O)(=O)N/N=C(\C)C2CCCCC2)cc1,inactive,–
N#C/C(C(=O)N1CCOCC1)=C1\Nc2ccccc2S1,"inconclusive: 25.1 µM [inhibitor, single point]",–
COc1cc(/C=N/NC(=O)CN(Cc2ccccc2)S(=O)(=O)c2ccc3c(c2)OCCO3)ccc1O,"inconclusive: 17.8 µM [activator, single point]",–
O=C(CSc1nnc(NC(=O)c2ccc(F)cc2)s1)NCc1ccco1,"inconclusive: 12.6 µM [inhibitor, partial curve, poor fit]",–

# Structural class: those above with a COOH group (three)
Structure (SMILES),Potency,"activity change, negative = inhibition"
Cc1nc(NCCc2ccccc2)sc1C(=O)O,"inconclusive: 35.5 µM [inhibitor, single point]",–
O=C(O)CCC(=O)Nc1ccc(-c2nnc(-c3ccco3)o2)cc1,inactive,–
COc1ccc(/C=N/NC(=O)c2[nH]c3ccc(C)cc3c2-c2ccccc2)c(C(=O)O)c1OC,inactive,–

# In the list so far, these contain a tert-butyl group.
Structure (SMILES),Potency,"activity change, negative = inhibition"
COc1cc([N+](=O)[O-])ccc1NC(=S)NC(=O)CC(C)(C)C,active: 10 µM,–
Cn1c(=O)c2c(SCC(=O)N3CCCc4ccccc43)nc(CC(C)(C)C)nc2n(C)c1=O,inactive,–
COCCNC(=O)Cc1c(C)c2c(cc(C)c3c(C(C)(C)C)coc32)oc1=O,inactive,–
